One compound from article PMC3539823 (Journal of medicinal chemistry, 2012) can be followed below.

SMILES strings stand for the structures. ≈ marks a conversion by molar mass, not a printed value.

Series [1] has as its system P493 human B cell xenograft. The conditions noted are these: mouse, in vivo, ip.
The conditions of series [2]: mouse liver microsomes, phase II, UDPGA 2 mM. (Liver microsomes are a subcellular fraction often used to study metabolism.)
Another series in a line: physchem. Particulars: pH 7.4.

One may read the solubility as how much of the substance goes into solution per volume. A higher solubility goes with much dissolved substance. Regarding `Nc1nnc(CCSCCc2nnc(NC(=O)Cc3ccccc3)s2)s1` [Compound 6, N-(5-{2-[2-(5-Amino-[1,3,4]thiadiazol-2-yl)-ethylsulfanyl]-ethyl}-[1,3,4]thiadiazol-2-yl)-2-phenyl-acetamide], the “toxicity following repeated intraperitoneal injection” value in series [1] is on record as “no apparent toxicity”. Further, the “loss of parent compound with UDGPA (glucuronidation)” value in series [2] is on record as “negligible loss of the parent compound”. In the series “physchem”, this compound registered a solubility of 13 µg/mL (≈ 32 µM).
